According to US20240191267A1, “Tropane Alkaloid Transporters and Methods of Making Tropane Alkaloids Using the Same” (priority 2021, published 2024):

System: AbLP1
Assay: Yeast toxicity assay and growth curves, AD1-8 expressing AbLP1
From the text: (§1) Solid lines and shaded/hatched bars respectively indicate mean and standard deviation of n=3 biologically independent samples.
Heatmap values were extracted from mean growth curves in FIG. 80.
as §1, §1
Yeast toxicity assays and growth curves. Candidate transporters for use in non-plant cells for the purpose of enhancing or modulating metabolite localization may be characterized in any suitable strain of the non-plant organism of interest. […] An example protocol for the characterization of TA transporters in yeast is provided as follows. […] Strain AD1-8 is transformed as described earlier with a low-copy plasmid harboring a constitutively expressed transporter candidate or blue fluorescent protein as negative control and a suitable auxotrophic marker, such as URA3, LEU2, TRP1, or […]. Transformants are inoculated into 1 mL of selective YNB-G media and grown overnight (˜14-18 h) at 30° C. and 460 rpm. Overnight cultures are then diluted in triplicate to a starting concentration of OD600=0.02 into selective YNB-G media containing 0-20 mM alkaloids (or appropriate substrates to be tested), 0 or 0.1 M potassium phosphate buffer (K2HPO4/KH2PO4, pH 5.4-6.4) or any suitable pH buffer, and 0-100 mM NaCl or KCl or any other salts of interest in a 96-well plate (200 μl culture volume per well). Culture densities (OD600) are then measured every 30 min for 48 h in a suitable plate reader, such as a SpectraMax i3 plate reader (Molecular Devices), with chamber temperature 30° C. and orbital shaking every 30 min.
D. Smolke, Biosynthesis of medicinal tropane alkaloids in yeast.

Structure (SMILES)	sensitivity to alkaloid conferred by transporter expression (AD1-8 expressing AbLP1, tropine only at 1 mM)	H+ dependence of hyoscyamine transport (AbLP1, 10 mM hyoscyamine, pH-buffered media (100 mM potassium phosphate))	effect of monovalent cations on transport (AbLP1, 20 mM hyoscyamine, 0-100 mM NaCl or KCl)
CN1[C@@H]2C[C@@H](OC(=O)[C@H](CO)c3ccccc3)C[C@H]1[C@@H]1O[C@@H]12 [scopolamine]	not		
CN1[C@@H]2CC[C@H]1C[C@@H](OC(=O)[C@H](CO)c1ccccc1)C2 [hyoscyamine]		did not appear to be pH-dependent	slightly enhanced at high [Na^+] but not at high [K^+]
